The values below are quoted from earlier work in US9757337B2, “Multicompartmental lipid nanoparticles” (CENTRE NATIONAL DE LA RECHERCHE SCIENTIFIQUE—CNRS, priority 2013, dated 2017).

Structures are written as SMILES. Values after ≈ are worked out from the molar mass of the structure shown.

For the series the following is noted: cited from earlier work.

For `O=c1c(O)c(-c2ccc(O)c(O)c2)oc2cc(O)cc(O)c12` [quercetin], the solubility in water was about 0.4 µg/mL (≈ 1.32 µM).
